PubChem BioAssay AID1224831, NIAID, 2016
Purpose: 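Confirming genome-wide hits on LPS-triggered TNF-alpha induction with independent siRNA sequences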 (follow-up of hits). Cells: human THP-1 B5 monocytic leukaemia cells carrying a TNF promoter luciferase reporter, made macrophage-like with PMA. Knock-down reagent: single siRNA against human genes, 50 nM. Timing: about 68 h of knock-down, then 4 h LPS. Conditions: LPS (Salmonella minnesota, TLR-grade) at 10 ng/ml for 4 h; PMA 5 ng/ml present during knock-down. Measured: 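TNF promoter reporter read as dual luciferase ratio after 4 h LPS, normalised per plate to its median, given as replicate mean robust z-score per siRNA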. Reading the numbers: TNF reporter z-score: higher = stronger LPS-induced TNF reporter signal; z-score, median over gene's siRNAs: higher = stronger TNF reporter signal across the gene's siRNAs. Call rule: 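Active when the replicate mean z-score is about -1 or lower, or about 1.5 or higher; lowered and raised TNF reporter signal both count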. Calls: active = changed TNF reporter (either direction); inactive = little change.
This is one part, drawn at random, of about 3,500 deposited reagents. 731 of them (21%) were called active. 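Active means either lowered or raised reporter signal; the gene-median score did not drive the per-siRNA calls.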 The numbers tell different reagents against one gene apart.

Target gene,siRNA no.,"TNF reporter z-score, replicate mean","z-score, median over gene's siRNAs",activity call
GPX4,1,0.64,-0.19,inactive
GPX4,2,-0.36,-0.19,inactive
GPX4,3,-0.5,-0.19,inactive
GPX4,4,0.09,-0.19,inactive
GPX4,5,-0.37,-0.19,inactive
GPX4,6,-0.02,-0.19,inactive
MAT2A,1,-0.69,-0.685,inactive
MAT2A,2,-1.3,-0.685,active
MAT2A,3,-1.32,-0.685,active
MAT2A,4,-0.48,-0.685,inactive
MAT2A,5,-0.09,-0.685,inactive
MAT2A,6,-0.68,-0.685,inactive
TRIM56,1,-0.45,0,inactive
TRIM56,2,-1.72,0,active
TRIM56,3,3.26,0,active
TRIM56,4,0.45,0,inactive
TRIM56,5,-0.45,0,inactive
TRIM56,6,1.36,0,inactive
MRPS35,1,-1.31,-0.17,active
MRPS35,2,-0.93,-0.17,inactive
MRPS35,3,0.56,-0.17,inactive
MRPS35,4,-0.13,-0.17,inactive
MRPS35,5,0.95,-0.17,inactive
MRPS35,6,-0.21,-0.17,inactive
IGFLR1,1,1.78,-0.135,active
IGFLR1,2,-0.2,-0.135,inactive
IGFLR1,3,0.2,-0.135,inactive
IGFLR1,4,-0.63,-0.135,inactive
IGFLR1,5,-0.13,-0.135,inactive
IGFLR1,6,-0.14,-0.135,inactive
CCDC92,1,1.37,0.695,inactive
CCDC92,2,1.57,0.695,active
CCDC92,3,0.33,0.695,inactive
CCDC92,4,1.06,0.695,inactive
CCDC92,5,-0.67,0.695,inactive
CCDC92,6,0.24,0.695,inactive

Quoted from above, 5 entries:
Target gene,siRNA no.,"TNF reporter z-score, replicate mean","z-score, median over gene's siRNAs",activity call
MRPS35,5,0.95,-0.17,inactive
MRPS35,6,-0.21,-0.17,inactive
IGFLR1,1,1.78,-0.135,active
IGFLR1,2,-0.2,-0.135,inactive
IGFLR1,3,0.2,-0.135,inactive

Continued:
Target gene,siRNA no.,"TNF reporter z-score, replicate mean","z-score, median over gene's siRNAs",activity call
GPBAR1,1,0.81,-0.44,inactive
GPBAR1,2,-0.46,-0.44,inactive
GPBAR1,3,0.76,-0.44,inactive
GPBAR1,4,-0.69,-0.44,inactive
GPBAR1,5,-0.42,-0.44,inactive
GPBAR1,6,-0.78,-0.44,inactive
MXD3,1,-1.07,0.64,active
MXD3,2,4.24,0.64,active
MXD3,3,0.33,0.64,inactive
MXD3,4,4.08,0.64,active
MXD3,5,0.3,0.64,inactive
MXD3,6,0.95,0.64,inactive
FDX1,1,-1.26,-0.02,active
FDX1,2,-1.21,-0.02,active
FDX1,3,0.18,-0.02,inactive
FDX1,4,-0.05,-0.02,inactive
FDX1,5,0.24,-0.02,inactive
FDX1,6,0.01,-0.02,inactive
SLC13A4,1,-0.44,0.105,inactive
SLC13A4,2,-1.56,0.105,active
SLC13A4,3,1.65,0.105,active
SLC13A4,4,0.65,0.105,inactive
SLC13A4,5,-0.88,0.105,inactive
SLC13A4,6,3.82,0.105,active
